# Among all 320,000 compounds or so, about 22,000 (6.9%) were called active. The shares of active, inactive and inconclusive entries below differ from those in the screen. Calls come from the whole dose curve; as a rule, active = well fitted inhibition curve with a large enough effect; inconclusive = small, poorly fitted or top-dose-only effect, or another doubt; inactive = no such curve, though single readings can be large or run the other way. Where the call is inconclusive, the potency comes from a doubtful curve fit.
# Assay: Primary qHTS for delayed death inhibitors of the malarial parasite plastid, 96 hour incubation
# Settings: P. falciparum luciferase reporter growth; series mostly up to 28.7 µM; activity change, negative = inhibition: at the top concentration
# Procedure, shortened: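 Cell-based qHTS: luciferase-tagged P. falciparum in erythrocytes (2% hematocrit, 0.05% parasitemia final) incubated with compounds for 96 hours, 37 C, 5% CO2; luciferase detection reagent then added and luminescence measured.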
# % is set by controls: 0 for no effect and ±100 for the full control effect; potency is the fitted concentration of half-maximal effect.
Structure (SMILES),Potency,"activity change, negative = inhibition"
Cc1c(C)c2ccc(OCC(=O)N3CC[C@@]4(O)CCCC[C@H]4C3)c(C)c2oc1=O,"inconclusive: 10.4 µM [inhibitor, single point]",–
CCOC(=O)c1c(NC(=O)CSc2nnc3ccccn23)sc2c1CCC2,"inconclusive: 18.5 µM [inhibitor, single point]",–
CC1CCCCC1NC(=O)Cn1cccc1C(=O)c1ccccc1 (configuration not stated),–,inactive: -11%
COc1cccc(OC)c1NC(=O)Cn1nc(-c2ccc3c(c2)OCCO3)ccc1=O,–,inactive: 46.3%
COc1cc(C2NC(=S)NC(c3ccccc3)=C2C(C)=O)cc(Cl)c1OCC(=O)O (configuration not stated),"inconclusive: 0.147 µM [inhibitor, full curve, poor fit]",–
CCOC(=O)[C@H]1[C@H]2COc3cc(OC)ccc3[C@@H]2N2C(=O)CN(Cc3ccc(OC)cc3)C(=O)[C@@]12C,"inconclusive: 2.62 µM [inhibitor, full curve]",–
CCOC(=O)c1sc(=NC(=O)C2CC2)n(C)c1C,"inconclusive: 9.28 µM [inhibitor, partial curve, poor fit]",–
CC(C)C(=O)NCCc1c[nH]c2ccccc12,"inconclusive: 18.5 µM [inhibitor, single point]",–
CC(C)(C)Cc1nnc(NC(=O)CCC2CCCCC2)s1,–,inactive: 2%
CC(=O)Nc1ccccc1C(=O)N1CCc2ccccc21,"inconclusive: 18.5 µM [inhibitor, single point]",–
O=c1c2cn(Cc3ccc(F)cc3)c3ccc(F)cc3c-2nn1Cc1ccc(F)cc1,–,inactive: 2.37%
O=S(=O)(NCc1ccco1)c1cccc(S(=O)(=O)N2CCOCC2)c1,"inconclusive: 11.7 µM [inhibitor, single point]",–
CC(NC(=O)c1ccc(S(=O)(=O)NCc2ccco2)cc1)c1ccc(F)cc1 (configuration not stated),"inconclusive: 11.7 µM [inhibitor, single point]",–
CC(NS(=O)(=O)c1ccc(Cl)c(Cl)c1)C(=O)OCC(=O)Nc1ccc2c(c1)OCO2 (configuration not stated),"inconclusive: 2.94 µM [inhibitor, single point]",–
NC1=NC[C@@H](Cc2ccc(O)cc2)N1CC1CCCCC1,active: 2.33 µM,–
Cc1ccc(C(=O)Nc2ncc(Cc3ccc(F)cc3)s2)o1,"inconclusive: 18.5 µM [inhibitor, single point]",–
O=C(c1ccccc1)N(C1=NCCCCS1)c1ccccc1,"inconclusive: 10.4 µM [inhibitor, single point]",–
C/C(=N\NC(=O)c1ccccc1F)c1ccc(C#N)cc1,–,inactive: 172%
COc1cccc(CNC(=O)CC2C(=O)NCCN2Cc2ccoc2)c1OC (configuration not stated),active: 11.7 µM,–
CCOc1ccccc1-c1nc(CN2CCN(C(=O)c3ccco3)CC2)c(C)o1,–,inactive: -29.1%
Cc1ccc(S(=O)(=O)/N=C2/NC(=O)/C(=C/c3ccc(Br)o3)S2)cc1,–,inactive: 28.7%

# Reprinted at random: 4 compounds from above
Structure (SMILES),Potency,"activity change, negative = inhibition"
COc1cccc(OC)c1NC(=O)Cn1nc(-c2ccc3c(c2)OCCO3)ccc1=O,–,inactive: 46.3%
CC(NS(=O)(=O)c1ccc(Cl)c(Cl)c1)C(=O)OCC(=O)Nc1ccc2c(c1)OCO2 (configuration not stated),"inconclusive: 2.94 µM [inhibitor, single point]",–
CC(NC(=O)c1ccc(S(=O)(=O)NCc2ccco2)cc1)c1ccc(F)cc1 (configuration not stated),"inconclusive: 11.7 µM [inhibitor, single point]",–
COc1cccc(CNC(=O)CC2C(=O)NCCN2Cc2ccoc2)c1OC (configuration not stated),active: 11.7 µM,–

# Carrying on.

Structure (SMILES),Potency,"activity change, negative = inhibition"
NCC12CC3CC(CC(O)(C3)C1)C2,"inconclusive: 0.37 µM [inhibitor, full curve, poor fit]",–
O=C(Cc1ccc(-n2c(=O)c3ccccc3n(Cc3cccc([N+](=O)[O-])c3)c2=O)cc1)NCC1CCCO1 (configuration not stated),"inconclusive: 10.4 µM [inhibitor, partial curve, poor fit]",–
COc1cc(-c2nnc(SCc3cc(=O)oc4cc(C)ccc34)o2)cc(OC)c1OC,"inconclusive: 13.1 µM [inhibitor, single point]",–
CCC(CC)C(=O)Nc1cc([N+](=O)[O-])ccc1F,"inconclusive: 18.5 µM [inhibitor, single point]",–
O=C(NC1CCCc2ccccc21)c1ccccn1 (configuration not stated),–,inactive: 9.04%
COc1cccc(OC)c1C(=O)N1CCN(S(=O)(=O)c2ccc(C)cc2)CC1,"inconclusive: 7.38 µM [inhibitor, partial curve, poor fit]",–
CCn1c(SCC(=O)Nc2ccc(C)cc2)nc2nc3c(cc2c1=O)COC(C)(C)C3,"inconclusive: 4.15 µM [inhibitor, partial curve, poor fit]",–
COc1ccc(/C=N/NC(=O)c2ccc(O)cc2)cc1CN1CCCc2ccccc21,active: 2.33 µM,–
CC(C)N1CCN(Cc2ccc3c(c2)Cc2ccccc2-3)CC1CCO (configuration not stated),"inconclusive: 0.0029 µM [inhibitor, full curve, poor fit]",–
CSC(=O)NC12CC3CC(CC(C)(C3)C1)C2,"inconclusive: 2.94 µM [inhibitor, single point]",–
COc1cc2ccccc2cc1C(=O)OCC(=O)N(CC(C)C)c1c(N)n(Cc2ccccc2)c(=O)[nH]c1=O,"inconclusive: 10.4 µM [inhibitor, single point]",–
CCOc1ccccc1-c1nc(-c2ccc(C)nc2OC)no1,–,inactive: 15.4%
CC12C=CC(=O)C=C1[C@@H](F)CC1C2C(O)CC2(C)C1CC[C@]2(O)C(=O)CO (some centres not stated),"inconclusive: 2.13 µM [inhibitor, partial curve, poor fit]",–
Cc1ccc(NC(=O)Cc2nc(CN(C)CC(=O)Nc3ccc(C)cc3)cs2)cc1,"inconclusive: 11.7 µM [inhibitor, single point]",–
Cc1cc(NC(=O)CSc2ccc3nnc(-c4cccnc4)n3n2)no1,–,inactive: 29.4%
COc1ccc(-n2ncc3c2CC(C)(C)CC3NC(=O)CCC2=NNC(=O)CC2)cc1 (configuration not stated),"inconclusive: 18.5 µM [inhibitor, single point]",–
Cc1ccnc(NC(=O)C2CCN(S(=O)(=O)c3cccc(C(F)(F)F)c3)CC2)c1,"inconclusive: 16.5 µM [inhibitor, partial curve, poor fit]",–
COc1ccc(C(=O)Nc2ccc(-n3nncc3C(C)(C)C)cc2)cc1,"inconclusive: 18.5 µM [inhibitor, single point]",–
COC(=O)CSc1ncnc2c1sc1nc(-c3ccco3)c3c(c12)CC(C)(C)OC3,–,inactive: 21.6%
COc1ccc(CCNC(=O)C2CCN(C(=O)c3ccc(Br)cc3)CC2)cc1,"inconclusive: 18.5 µM [inhibitor, single point]",–
CN(CC(=O)Nc1cccc(S(=O)(=O)N2CCCC2)c1)CC(=O)Nc1ccc(Cl)c(C(F)(F)F)c1,"inconclusive: 0.104 µM [inhibitor, full curve, poor fit]",–

# Source: PubChem BioAssay AID504834 (National Center for Advancing Translational Sciences (NCATS), 2011)
